Test results taken from publication PMC8508133.
These are yes or no findings as the source states them, for the method shown. Binding seen in cells or lysates may run through a third protein. Some entries that bind do so weakly or less than the wild type. Sequences can lack the tags named with a protein.

Chains of the proteins cited; added tags and fusions are not shown. Residues count along the entry.
UniProt P31266: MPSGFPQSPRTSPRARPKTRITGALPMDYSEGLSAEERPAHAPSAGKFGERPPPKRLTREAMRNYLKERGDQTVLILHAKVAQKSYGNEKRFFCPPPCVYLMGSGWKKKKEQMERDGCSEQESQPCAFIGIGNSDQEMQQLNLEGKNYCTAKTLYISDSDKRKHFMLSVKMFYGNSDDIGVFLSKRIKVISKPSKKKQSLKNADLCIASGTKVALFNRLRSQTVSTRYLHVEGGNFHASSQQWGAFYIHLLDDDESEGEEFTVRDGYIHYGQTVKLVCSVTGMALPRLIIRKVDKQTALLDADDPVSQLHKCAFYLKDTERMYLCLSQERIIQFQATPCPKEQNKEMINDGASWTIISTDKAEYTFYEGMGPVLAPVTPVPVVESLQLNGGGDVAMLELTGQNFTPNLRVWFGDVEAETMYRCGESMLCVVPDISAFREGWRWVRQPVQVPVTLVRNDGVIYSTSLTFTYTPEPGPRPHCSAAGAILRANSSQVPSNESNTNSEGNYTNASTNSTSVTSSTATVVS
UniProt P46531, residues 1761-2555: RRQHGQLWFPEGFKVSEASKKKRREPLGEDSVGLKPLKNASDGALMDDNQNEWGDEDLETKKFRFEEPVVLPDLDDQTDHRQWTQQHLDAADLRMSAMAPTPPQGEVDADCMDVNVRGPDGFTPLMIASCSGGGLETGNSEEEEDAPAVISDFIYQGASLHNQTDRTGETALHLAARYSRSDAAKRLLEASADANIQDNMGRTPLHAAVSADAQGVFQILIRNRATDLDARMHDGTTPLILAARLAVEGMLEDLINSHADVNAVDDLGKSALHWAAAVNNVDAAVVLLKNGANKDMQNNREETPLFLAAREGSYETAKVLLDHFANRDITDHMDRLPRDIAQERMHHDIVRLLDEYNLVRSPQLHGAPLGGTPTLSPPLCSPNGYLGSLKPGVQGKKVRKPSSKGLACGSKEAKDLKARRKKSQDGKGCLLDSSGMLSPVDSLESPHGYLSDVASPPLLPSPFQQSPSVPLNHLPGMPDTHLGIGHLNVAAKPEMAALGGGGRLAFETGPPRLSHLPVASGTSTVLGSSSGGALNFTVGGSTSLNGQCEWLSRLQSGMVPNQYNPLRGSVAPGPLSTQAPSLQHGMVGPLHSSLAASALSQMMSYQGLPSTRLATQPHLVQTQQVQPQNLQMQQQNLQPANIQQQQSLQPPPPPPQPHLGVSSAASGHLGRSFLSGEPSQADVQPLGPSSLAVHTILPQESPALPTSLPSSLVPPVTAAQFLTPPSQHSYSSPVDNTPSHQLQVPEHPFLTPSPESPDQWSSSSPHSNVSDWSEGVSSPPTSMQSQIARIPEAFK

biological target: Flag-tagged RBPJ (UniProt P31266); assay: co-IP; HEK293 cells cotransfected with Flag- and GFP-tagged constructs, lysed 24 h later in CHAPS lysis buffer (10 mM CHAPS, 50 mM Tris-HCl pH 7.8, 150 mM NaCl); agarose-conjugated anti-Flag (M2) at 4 °C overnight, 6 to 8 washes; co-precipitated proteins detected with anti-GFP

Molecule	binding
GFP-tagged NICD (human NOTCH1 intracellular domain, aa 1761-2555) (from UniProt P46531 1761-2555) (domain or fragment)	binds
GFP-tagged KyoT2 (protein, UniProt P97447-2 1-194) MSEKFDCHYCRDPLQGKKYVQKDGRHCCLKCFDKFCANTCVDCRKPISADAKEVHYKNRYWHDNCFRCAKCLHPLASETFVSKDGKILCNKCATREDSPRCKGCFKAIVAGDQNVEYKGTVWHKDCFTCSNCKQVIGTGSFFPKGEDFYCVTCHETKFAKHCVKCNKGLVKAPVWWPMKDNPGTTTASTAKNAP	binds
RITA (protein, UniProt Q96K30 1-269) MKTPVELAVSGMQTLGLQHRCRGGYRVKARTSYVDETLFGSPAGTRPTPPDFDPPWVEKANRTRGVGKEASKALGAKGSCETTPSRGSTPTLTPRKKNKYRPISHTPSYCDESLFGSRSEGASFGAPRMAKGDAAKLRALLWTPPPTPRGSHSPRPREAPLRAIHPAGPSKTEPGPAADSQKLSMGGLHSSRPLKRGLSHSLTHLNVPSTGHPATSAPHTNGPQDLRPSTSGVTFRSPLVTSRARSVSISVPSTPRRGGATQKPKPPWK	binds
PTF1a (protein, UniProt Q9QX98 1-324) MDAVLLEHFPGGLDTFPSPYFDEEDFFTDQSSRDPLEDSDELLGDEQAEVEFLSHQLHEYCYRDGACLLLQPAPSAAPHALAPPPLGDPGEPEDNVSYCCDAGAPLAAFPYSPGSPPSCLAYPCAAVLSPGARLGGLNGAAAAAAARRRRRVRSEAELQQLRQAANVRERRRMQSINDAFEGLRSHIPTLPYEKRLSKVDTLRLAIGYINFLSELVQADLPLRGSGAGGCGGPGGSRHLGEDSPGNQAQKVIICHRGTRSPSPSDPDYGLPPLAGHSLSWTDEKQLKEQNIIRTAKVWTPEDPRKLNSKSFDNIENEPPFEFVS	binds
